The target in assay [1] is T1, SQUAMOSA PROMOTER BINDING PROTEIN-LIKE9 (SPL9), GAL4BD fusion (Arabidopsis thaliana) (UniProt Q700W2).
T1 sequence: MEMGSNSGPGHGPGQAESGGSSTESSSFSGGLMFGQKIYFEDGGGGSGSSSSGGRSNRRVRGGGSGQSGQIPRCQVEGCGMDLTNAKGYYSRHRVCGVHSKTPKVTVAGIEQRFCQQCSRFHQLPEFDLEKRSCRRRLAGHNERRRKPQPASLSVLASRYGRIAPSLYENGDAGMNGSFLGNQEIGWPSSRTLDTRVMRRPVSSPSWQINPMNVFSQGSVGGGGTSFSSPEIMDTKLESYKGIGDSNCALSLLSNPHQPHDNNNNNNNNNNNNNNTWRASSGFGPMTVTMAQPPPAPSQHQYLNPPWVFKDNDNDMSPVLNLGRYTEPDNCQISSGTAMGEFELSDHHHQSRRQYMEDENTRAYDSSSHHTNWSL
In words: two-hybrid; direct test in yeast, SPL9 as GAL4BD fusion against BZR1, BES1, BIN2 and fragments of BZR1; growth on SD medium.

Protein sequences, listed by entry. Tags and fused reporters are not part of them.
UniProt Q9LN63: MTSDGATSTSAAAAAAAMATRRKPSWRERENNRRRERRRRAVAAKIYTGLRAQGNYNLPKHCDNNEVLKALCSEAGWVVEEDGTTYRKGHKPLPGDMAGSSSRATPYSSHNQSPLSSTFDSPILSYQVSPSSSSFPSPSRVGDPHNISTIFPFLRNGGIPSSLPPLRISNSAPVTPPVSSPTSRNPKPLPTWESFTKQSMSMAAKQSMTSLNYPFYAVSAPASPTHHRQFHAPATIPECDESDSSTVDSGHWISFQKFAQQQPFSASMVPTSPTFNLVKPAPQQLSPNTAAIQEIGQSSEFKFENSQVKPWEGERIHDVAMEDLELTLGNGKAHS

Assay [2] has as its target T2, SPL9-nYFP (Arabidopsis thaliana) (UniProt Q700W2).
T2 sequence: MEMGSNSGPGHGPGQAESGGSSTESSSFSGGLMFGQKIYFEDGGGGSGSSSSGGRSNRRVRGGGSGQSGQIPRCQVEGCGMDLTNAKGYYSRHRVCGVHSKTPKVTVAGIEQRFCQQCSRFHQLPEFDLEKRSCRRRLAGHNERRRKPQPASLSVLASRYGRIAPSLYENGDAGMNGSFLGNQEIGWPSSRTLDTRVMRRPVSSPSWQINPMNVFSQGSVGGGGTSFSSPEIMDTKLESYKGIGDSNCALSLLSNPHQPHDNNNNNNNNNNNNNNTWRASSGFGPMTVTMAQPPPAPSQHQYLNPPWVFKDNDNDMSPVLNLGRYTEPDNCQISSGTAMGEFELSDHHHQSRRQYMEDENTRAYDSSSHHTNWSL
In words: split reporter; BiFC in tobacco (Nicotiana tabacum) leaves, SPL9-nYFP and BZR1-cYFP injected by Agrobacterium, at least 36 h at 22 °C, confocal microscopy.

Assay [3] has as its target BRASSINAZOLE-… 1 (BZR1), bait of the two-hybrid screen (Arabidopsis thaliana) (UniProt Q8S307). In words: two-hybrid; screen for proteins interacting with BZR1 in yeast; library not described.

No constants are given. Whether binding was seen depends on the method and setting. For some of these results: Binding seen in cells or lysates may run through a third protein. Some binding calls cover weakened binding; strength is not graded here. For some of these results: Tags and fused reporters may be left off the sequences shown.

This note sets out measurements from PMC8509050, “BZR1 Physically Interacts with SPL9 to Regulate the Vegetative Phase Change and Cell Elongation in Arabidopsis” (International Journal of Molecular Sciences, 2021).

In the case of “BRI1-EMS-SUPPRESSOR 1 (BES1), two-hybrid fusion (from UniProt Q9LN63 1-335)”, the binding result in assay [1] is listed as “binds”.

In the case of BZR1-cYFP (from UniProt Q8S307 1-336), the binding entry in assay [2] is “binds”.

“BRASSINAZOLE-… 1 (BZR1), two-hybrid fusion (from UniProt Q8S307 1-336)”: the binding entry in assay [1] is given as “binds”.

B1: SPL9, candidate found in the two-hybrid screen with BZR1 (protein, UniProt Q700W2 1-375)
chain: MEMGSNSGPGHGPGQAESGGSSTESSSFSGGLMFGQKIYFEDGGGGSGSSSSGGRSNRRVRGGGSGQSGQIPRCQVEGCGMDLTNAKGYYSRHRVCGVHSKTPKVTVAGIEQRFCQQCSRFHQLPEFDLEKRSCRRRLAGHNERRRKPQPASLSVLASRYGRIAPSLYENGDAGMNGSFLGNQEIGWPSSRTLDTRVMRRPVSSPSWQINPMNVFSQGSVGGGGTSFSSPEIMDTKLESYKGIGDSNCALSLLSNPHQPHDNNNNNNNNNNNNNNTWRASSGFGPMTVTMAQPPPAPSQHQYLNPPWVFKDNDNDMSPVLNLGRYTEPDNCQISSGTAMGEFELSDHHHQSRRQYMEDENTRAYDSSSHHTNWSL
In the case of B1, the binding result in assay [3] is reported as “binds”.
